Test results reported in patent EP0791603A2 (American Cyanamid Company, priority 1996, dated 1997).

Experiment: general procedure: Fmoc solid-phase peptide synthesis in flow; Fmoc-PAL-PEG-resin; BOP/HOBT/diisopropylethylamine
Details: whole synthesis, scale 0.3 mmole

PEPTIDE1{[4-NO2Phe].[dC].Y.[dW].K.V.C.[N(CH3)Ala].[am]}$PEPTIDE1,PEPTIDE1,2:R3-7:R3$$$V2.0
isolated mass: 31 mg

Some peptides are written in HELM: one residue between dots, names in brackets for other building blocks, links after the first $.
